1 molecule from US20220204629A1 can be followed below.

Chains of the proteins cited; added tags and fusions are not shown. Lines headed by an entry give the natural chain unless they say otherwise; changes in a name come on top. A line that says so, or that is headed by a name, gives the form on record, which may keep a tag or linker.
recombinant, full length human Galectin-9 (R&D Systems 2045-GA) (O00182, form named): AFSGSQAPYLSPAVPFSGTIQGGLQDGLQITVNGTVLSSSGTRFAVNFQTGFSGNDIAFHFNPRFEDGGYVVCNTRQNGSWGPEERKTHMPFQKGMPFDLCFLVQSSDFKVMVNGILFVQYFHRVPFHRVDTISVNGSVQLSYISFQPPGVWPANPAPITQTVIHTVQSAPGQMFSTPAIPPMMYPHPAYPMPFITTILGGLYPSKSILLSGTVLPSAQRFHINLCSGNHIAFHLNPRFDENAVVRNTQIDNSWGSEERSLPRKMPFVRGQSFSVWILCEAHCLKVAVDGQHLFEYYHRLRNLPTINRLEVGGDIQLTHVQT

No constants are given. Whether binding was seen depends on the method and setting. Some binding calls cover weakened binding; strength is not graded here. Sequences can lack the tags named with a protein.

The experiment concerns the target recombinant, full length human Galectin-9 (R&D Systems 2045-GA) (human) (UniProt O00182). Nature of the experiment: ELISA, full length galectin-9 immobilized. Background: In an ELISA, binding on a coated surface is turned into a signal by an enzyme label.

B1: CD206 human recombinant protein, His-tagged (receptor, UniProt P22897 19-1383, looked up)
chain: LLDTRQFLIYNEDHKRCVDAVSPSAVQTAACNQDAESQKFRWVSESQIMSVAFKLCLGVPSKTDWVAITLYACDSKSEFQKWECKNDTLLGIKGEDLFFNYGNRQEKNIMLYKGSGLWSRWKIYGTTDNLCSRGYEAMYTLLGNANGATCAFPFKFENKWYADCTSAGRSDGWLWCGTTTDYDTDKLFGYCPLKFEGSESLWNKDPLTSVSYQINSKSALTWHQARKSCQQQNAELLSITEIHEQTYLTGLTSSLTSGLWIGLNSLSFNSGWQWSDRSPFRYLNWLPGSPSAEPGKSCVSLNPGKNAKWENLECVQKLGYICKKGNTTLNSFVIPSESDVPTHCPSQWWPYAGHCYKIHRDEKKIQRDALTTCRKEGGDLTSIHTIEELDFIISQLGYEPNDELWIGLNDIKIQMYFEWSDGTPVTFTKWLRGEPSHENNRQEDCVVMKGKDGYWADRGCEWPLGYICKMKSRSQGPEIVEVEKGCRKGWKKHHFYCYMIGHTLSTFAEANQTCNNENAYLTTIEDRYEQAFLTSFVGLRPEKYFWTGLSDIQTKGTFQWTIEEEVRFTHWNSDMPGRKPGCVAMRTGIAGGLWDVLKCDEKAKFVCKHWAEGVTHPPKPTTTPEPKCPEDWGASSRTSLCFKLYAKGKHEKKTWFESRDFCRALGGDLASINNKEEQQTIWRLITASGSYHKLFWLGLTYGSPSEGFTWSDGSPVSYENWAYGEPNNYQNVEYCGELKGDPTMSWNDINCEHLNNWICQIQKGQTPKPEPTPAPQDNPPVTEDGWVIYKDYQYYFSKEKETMDNARAFCKRNFGDLVSIQSESEKKFLWKYVNRNDAQSAYFIGLLISLDKKFAWMDGSKVDYVSWATGEPNFANEDENCVTMYSNSGFWNDINCGYPNAFICQRHNSSINATTVMPTMPSVPSGCKEGWNFYSNKCFKIFGFMEEERKNWQEARKACIGFGGNLVSIQNEKEQAFLTYHMKDSTFSAWTGLNDVNSEHTFLWTDGRGVHYTNWGKGYPGGRRSSLSYEDADCVVIIGGASNEAGKWMDDTCDSKRGYICQTRSDPSLTNPPATIQTDGFVKYGKSSYSLMRQKFQWHEAETYCKLHNSLIASILDPYSNAFAWLQMETSNERVWIALNSNLTDNQYTWTDKWRVRYTNWAADEPKLKSACVYLDLDGYWKTAHCNESFYFLCKRSDEIPATEPPQLPGRCPESDHTAWIPFHGHCYYIESSYTRNWGQASLECLRMGSSLVSIESAAESSFLSYRVEPLKSKTNFWIGLFRNVEGTWLWINNSPVSFVNWNTGDPSGERNDCVALHASSGFWSNIHCSSYKGYICKRPKIIDAKPTHELLTTKADTRKMDPSK
Take B1: the binding result is given as “binds”.
